Measured values reported in PubChem BioAssay AID1794845 (National Center for Advancing Translational Sciences (NCATS), 2023).
Screen size: about 6,900 compounds; fewer than 10 were called active. The call rests on the fitted dose curve; in most records, active means well fitted curve in the direction sought with a large enough effect; inconclusive means small, poorly fitted or top-dose-only effect, or another doubt; inactive means no such curve, though single readings can be large or run the other way. The list shows a part of the results.

The chains behind the UniProt entries cited, without tags or fusion partners. Where a name states a change or a piece, a line headed by the entry shows the natural chain unless it says otherwise.
UniProt C7C422: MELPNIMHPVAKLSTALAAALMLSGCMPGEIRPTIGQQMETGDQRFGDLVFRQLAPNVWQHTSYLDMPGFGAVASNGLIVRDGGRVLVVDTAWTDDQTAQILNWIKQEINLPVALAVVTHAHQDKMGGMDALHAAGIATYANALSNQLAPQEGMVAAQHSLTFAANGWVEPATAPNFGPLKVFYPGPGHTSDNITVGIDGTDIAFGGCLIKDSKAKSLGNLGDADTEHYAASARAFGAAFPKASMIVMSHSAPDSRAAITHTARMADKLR

Target: Metallo-beta-lactamase type 2 (Klebsiella pneumoniae) (UniProt C7C422)
Experiment: qHTS to identify inhibitors of the New Delhi Metallo-beta-lactamase (NDM): primary screen against the NCATS Gemini Collection; further: % of control where 0% means no effect
Conditions: NDM-1 enzyme, meropenem hydrolysis, absorbance 300 nm; at 38.4 µM (top of the series) unless noted
Procedure, shortened: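 NDM-1 at 2 nM final in 50 mM HEPES pH 7.0, 1 uM ZnSO4, 0.01% Tween20, preincubated >30 min with compound. Meropenem 50 uM final added; absorbance at 300 nm after 30 min.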

SMILES	activity % (negative = inhibition)
O=C1NCCCCCCN(C(=O)c2cccnc2)[C@H]2C[C@H](c3nc(Cc4ccccc4)no3)C[C@@H]12	inactive: -0.424%
COc1cccc(C(=O)N2CCOC[C@H](Oc3ccccc3)C2)c1	inactive: -1.19% [at 57.5 µM]
Cc1cn2nc(C(=O)N3CCN(C(=O)c4ccco4)CC3)cc2c(N2CCCC2)n1	inactive: 40.3%
CN(CC(=O)N1CCC2(CCNCC2)CC1)Cc1cccnc1	inactive: 21%
COCCN1C(=O)CCc2cc(NC(=O)c3ccc(Cl)s3)ccc21	inactive: 17.2%
COCCN1Cc2ccc(NCC(C)C)nc2C(C)(C(=O)NC2CCC2)C1 (stereo not drawn)	inactive: 3.5% [at 57.5 µM]
CCCS(=O)(=O)N1C[C@@H](Oc2ccccc2)C[C@@H]1C(=O)NCCOC	inactive: 0.032%
Cc1ccc([S+](=O)([O-])NCCNC(=O)c2ccc(-c3cccc(C(F)(F)F)c3)cc2)cc1	inactive: -3.31%
Cc1cc(F)ccc1S(=O)(=O)N1C[C@H](C2CC2)[C@@H](N)C1	inactive: -2.34%
O=C(N[C@H]1CCN2C(=O)c3cc(-c4ccc(Cl)cc4)ccc3NC(=O)[C@H]12)C1CCCC1	inactive: 2.11%
CCn1c2c(c(=O)n1-c1ccccc1)CCN(Cc1ncccn1)C2	inactive: 44.5% [at 57.5 µM]
O=C(NCC1CC1)c1cccc(OC2CN(Cc3cc4ccccc4nc3Cl)C2)c1	inactive: 13.3%
O=C(Cc1ccccc1F)N1CC2CC(C1)[C@H]1CCCC(=O)N1C2 (stereo partly drawn)	inactive: -3.81%
Cc1ccc(C(C(=O)O)N2CCC(CCN3CCCC3=O)CC2)cc1C (stereo not drawn)	inactive: 0.203%
COc1cccc(CN2CCCC3(CCN(C(=O)c4cnc(C)cn4)C3)C2)c1 (stereo not drawn)	inactive: -12.3%
Cc1nnc2n1CCC(NC(=O)CCCc1c[nH]c3ccccc13)CC2 (stereo not drawn)	inactive: 2.08%
CCc1ncc(-c2c(-c3ccccc3)ncn2CCCOc2cccnc2)cn1	inactive: 56.7%
CCCN(CCC)C(=O)c1coc(COc2ccc3sc(C)nc3c2)n1	inactive: 0.676%
CCCn1cnc2c1CN(S(=O)(=O)c1ccc(F)cc1)[C@H](C(=O)OC)C2	inactive: 2.26% [at 57.5 µM]
CCOCCN1C(=O)COC[C@@H]1[C@H](O)c1ccc(NC(=O)c2cccc(C#N)c2)cc1	inactive: 5.93% [at 57.5 µM]
O=C(NC1CCCC1)N1CCCC(Cn2cnc3cccnc32)C1 (stereo not drawn)	inactive: 26.6%
CN(CCOc1cccc(Cl)c1)C(=O)c1cccc(CCC(C)(C)O)c1	inactive: 6.5%
COc1ccc(OC)c(CN2CCC3(CC2)Nc2ccccc2NC3=O)c1	inactive: 0.719%

Individual results from the entries so far.
activity % (negative = inhibition), Cc1cc(F)ccc1S(=O)(=O)N1C[C@H](C2CC2)[C@@H](N)C1 is entered as inactive: -2.34%
activity % (negative = inhibition), Cc1cn2nc(C(=O)N3CCN(C(=O)c4ccco4)CC3)cc2c(N2CCCC2)n1 is entered as inactive: 40.3%
